Data from paper doi:10.1101/2023.12.08.570772.
Results are given in words; binding and its absence hold for the method and conditions named. In cells and extracts the contact can be indirect. Some results given as binding are weak or reduced against the parent protein; the word gives no strength.

The chains behind the UniProt entries cited, without tags or fusion partners. Where a name states a change or a piece, a line headed by the entry shows the natural chain unless it says otherwise.
UniProt Q9NS91, whole entry, looked up, stated change not applied: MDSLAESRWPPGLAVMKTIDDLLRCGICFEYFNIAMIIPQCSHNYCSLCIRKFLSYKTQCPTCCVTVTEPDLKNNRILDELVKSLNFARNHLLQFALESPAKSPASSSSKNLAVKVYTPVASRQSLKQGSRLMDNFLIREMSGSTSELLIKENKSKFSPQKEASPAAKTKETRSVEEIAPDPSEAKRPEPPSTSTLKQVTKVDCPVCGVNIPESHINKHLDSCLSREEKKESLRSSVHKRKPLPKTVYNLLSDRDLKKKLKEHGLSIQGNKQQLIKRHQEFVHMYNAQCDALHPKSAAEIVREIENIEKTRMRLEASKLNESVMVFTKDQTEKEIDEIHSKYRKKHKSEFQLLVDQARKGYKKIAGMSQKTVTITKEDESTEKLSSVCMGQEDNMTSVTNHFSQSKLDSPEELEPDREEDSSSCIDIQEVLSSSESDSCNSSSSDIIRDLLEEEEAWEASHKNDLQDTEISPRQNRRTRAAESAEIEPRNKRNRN
UniProt P43358, whole entry: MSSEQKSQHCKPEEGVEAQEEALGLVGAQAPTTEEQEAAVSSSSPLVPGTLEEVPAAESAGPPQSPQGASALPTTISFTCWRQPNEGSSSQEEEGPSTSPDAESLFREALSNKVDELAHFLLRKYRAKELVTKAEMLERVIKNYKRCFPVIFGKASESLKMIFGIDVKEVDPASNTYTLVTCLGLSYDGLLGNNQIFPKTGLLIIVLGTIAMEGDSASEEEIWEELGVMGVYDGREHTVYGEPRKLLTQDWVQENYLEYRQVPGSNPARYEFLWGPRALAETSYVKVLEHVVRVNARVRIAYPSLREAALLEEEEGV

Key:
Experiment in all cases: pull-down
[1] = target: His-tagged full length RAD18 F350D (human) (UniProt Q9NS91)
[2] = target: His-tagged full length RAD18 Y361D (human) (UniProt Q9NS91)
[3] = target: His-tagged full length RAD18 A357D (human) (UniProt Q9NS91)
[4] = target: His-tagged full length RAD18 V354D (human) (UniProt Q9NS91)

For “untagged FL MAGEA4 WT (from UniProt P43358 1-317)”, the binding [1] was “binds weakly”, the binding [2] was “binds weakly” and the binding [3] was “binds”. The binding [4] was “binds”.
